Results published in article doi:10.1101/427112.

By UniProt entry, the sequences of proteins in these tests, tags left out. Where a name states a change or a piece, a line headed by the entry shows the natural chain unless it says otherwise. Chains listed by the source or under a name are the forms on record and can include a tag or linker. Residues count along the entry.
integrin β5-BirA* fusion protein (P18084, residues 24-799): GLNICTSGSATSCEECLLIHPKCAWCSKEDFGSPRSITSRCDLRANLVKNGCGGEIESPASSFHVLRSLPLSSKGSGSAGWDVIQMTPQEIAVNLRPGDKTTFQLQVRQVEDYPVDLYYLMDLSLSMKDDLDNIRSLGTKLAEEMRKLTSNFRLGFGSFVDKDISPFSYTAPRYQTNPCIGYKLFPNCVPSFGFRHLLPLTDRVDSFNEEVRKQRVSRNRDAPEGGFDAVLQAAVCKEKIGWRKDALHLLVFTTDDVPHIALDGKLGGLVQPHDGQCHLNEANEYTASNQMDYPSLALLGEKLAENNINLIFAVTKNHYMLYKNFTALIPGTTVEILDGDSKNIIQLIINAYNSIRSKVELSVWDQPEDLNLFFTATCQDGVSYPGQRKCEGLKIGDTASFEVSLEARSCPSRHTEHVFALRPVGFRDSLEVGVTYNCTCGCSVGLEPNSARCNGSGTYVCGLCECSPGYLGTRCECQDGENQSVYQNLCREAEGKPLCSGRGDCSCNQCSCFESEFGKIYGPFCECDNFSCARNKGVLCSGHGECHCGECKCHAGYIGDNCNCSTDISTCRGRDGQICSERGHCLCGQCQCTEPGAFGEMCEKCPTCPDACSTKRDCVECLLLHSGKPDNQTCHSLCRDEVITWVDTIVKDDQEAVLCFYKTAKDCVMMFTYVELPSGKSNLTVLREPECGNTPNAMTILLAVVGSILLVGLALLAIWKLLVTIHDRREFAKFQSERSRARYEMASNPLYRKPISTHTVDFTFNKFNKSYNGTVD
integrin β5-BirA* with Y>A mutation in the membrane-distal NxxY motif (P18084, form named): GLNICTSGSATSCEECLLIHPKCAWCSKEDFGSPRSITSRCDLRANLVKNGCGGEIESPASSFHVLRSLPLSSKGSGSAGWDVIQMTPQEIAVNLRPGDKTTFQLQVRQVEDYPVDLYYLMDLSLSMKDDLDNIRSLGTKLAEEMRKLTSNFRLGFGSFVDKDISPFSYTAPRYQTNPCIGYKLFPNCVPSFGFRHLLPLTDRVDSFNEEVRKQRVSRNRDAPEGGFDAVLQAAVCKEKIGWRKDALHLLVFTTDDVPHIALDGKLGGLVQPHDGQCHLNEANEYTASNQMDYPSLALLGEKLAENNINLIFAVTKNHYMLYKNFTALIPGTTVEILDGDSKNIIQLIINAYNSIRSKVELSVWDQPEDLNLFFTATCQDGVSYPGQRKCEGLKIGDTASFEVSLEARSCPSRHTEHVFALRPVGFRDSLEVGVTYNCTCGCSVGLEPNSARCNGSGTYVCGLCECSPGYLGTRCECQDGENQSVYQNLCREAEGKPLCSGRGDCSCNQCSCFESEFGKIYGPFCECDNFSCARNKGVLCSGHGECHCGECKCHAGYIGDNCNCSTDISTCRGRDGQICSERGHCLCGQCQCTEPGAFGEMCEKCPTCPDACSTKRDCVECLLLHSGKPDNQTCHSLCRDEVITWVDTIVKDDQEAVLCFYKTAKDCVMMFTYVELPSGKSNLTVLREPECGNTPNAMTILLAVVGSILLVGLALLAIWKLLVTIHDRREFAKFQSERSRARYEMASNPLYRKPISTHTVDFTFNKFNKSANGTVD
integrin β5-BirA* with Y>A mutation in the membrane-proximal NPxY motif (P18084, form named): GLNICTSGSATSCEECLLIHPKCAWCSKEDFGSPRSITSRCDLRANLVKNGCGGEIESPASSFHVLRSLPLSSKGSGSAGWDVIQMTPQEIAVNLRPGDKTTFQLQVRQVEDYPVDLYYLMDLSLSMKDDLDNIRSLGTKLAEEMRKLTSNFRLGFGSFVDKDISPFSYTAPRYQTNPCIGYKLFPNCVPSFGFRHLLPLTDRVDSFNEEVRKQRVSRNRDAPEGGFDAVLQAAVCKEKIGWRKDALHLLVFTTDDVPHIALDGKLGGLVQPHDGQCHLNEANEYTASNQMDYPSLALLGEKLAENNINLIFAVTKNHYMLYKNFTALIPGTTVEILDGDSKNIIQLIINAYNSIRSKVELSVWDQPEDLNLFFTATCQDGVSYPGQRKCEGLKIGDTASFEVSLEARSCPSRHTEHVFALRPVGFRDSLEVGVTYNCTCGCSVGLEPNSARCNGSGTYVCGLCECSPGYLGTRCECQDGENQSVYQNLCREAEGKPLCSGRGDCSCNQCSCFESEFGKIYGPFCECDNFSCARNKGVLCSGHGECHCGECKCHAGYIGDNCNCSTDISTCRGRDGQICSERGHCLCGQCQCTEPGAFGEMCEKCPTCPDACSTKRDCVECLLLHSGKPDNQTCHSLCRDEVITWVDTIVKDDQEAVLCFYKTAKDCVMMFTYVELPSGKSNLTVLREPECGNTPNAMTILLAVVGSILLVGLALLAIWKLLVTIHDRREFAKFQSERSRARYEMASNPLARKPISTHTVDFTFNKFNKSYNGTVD
UniProt Q15811: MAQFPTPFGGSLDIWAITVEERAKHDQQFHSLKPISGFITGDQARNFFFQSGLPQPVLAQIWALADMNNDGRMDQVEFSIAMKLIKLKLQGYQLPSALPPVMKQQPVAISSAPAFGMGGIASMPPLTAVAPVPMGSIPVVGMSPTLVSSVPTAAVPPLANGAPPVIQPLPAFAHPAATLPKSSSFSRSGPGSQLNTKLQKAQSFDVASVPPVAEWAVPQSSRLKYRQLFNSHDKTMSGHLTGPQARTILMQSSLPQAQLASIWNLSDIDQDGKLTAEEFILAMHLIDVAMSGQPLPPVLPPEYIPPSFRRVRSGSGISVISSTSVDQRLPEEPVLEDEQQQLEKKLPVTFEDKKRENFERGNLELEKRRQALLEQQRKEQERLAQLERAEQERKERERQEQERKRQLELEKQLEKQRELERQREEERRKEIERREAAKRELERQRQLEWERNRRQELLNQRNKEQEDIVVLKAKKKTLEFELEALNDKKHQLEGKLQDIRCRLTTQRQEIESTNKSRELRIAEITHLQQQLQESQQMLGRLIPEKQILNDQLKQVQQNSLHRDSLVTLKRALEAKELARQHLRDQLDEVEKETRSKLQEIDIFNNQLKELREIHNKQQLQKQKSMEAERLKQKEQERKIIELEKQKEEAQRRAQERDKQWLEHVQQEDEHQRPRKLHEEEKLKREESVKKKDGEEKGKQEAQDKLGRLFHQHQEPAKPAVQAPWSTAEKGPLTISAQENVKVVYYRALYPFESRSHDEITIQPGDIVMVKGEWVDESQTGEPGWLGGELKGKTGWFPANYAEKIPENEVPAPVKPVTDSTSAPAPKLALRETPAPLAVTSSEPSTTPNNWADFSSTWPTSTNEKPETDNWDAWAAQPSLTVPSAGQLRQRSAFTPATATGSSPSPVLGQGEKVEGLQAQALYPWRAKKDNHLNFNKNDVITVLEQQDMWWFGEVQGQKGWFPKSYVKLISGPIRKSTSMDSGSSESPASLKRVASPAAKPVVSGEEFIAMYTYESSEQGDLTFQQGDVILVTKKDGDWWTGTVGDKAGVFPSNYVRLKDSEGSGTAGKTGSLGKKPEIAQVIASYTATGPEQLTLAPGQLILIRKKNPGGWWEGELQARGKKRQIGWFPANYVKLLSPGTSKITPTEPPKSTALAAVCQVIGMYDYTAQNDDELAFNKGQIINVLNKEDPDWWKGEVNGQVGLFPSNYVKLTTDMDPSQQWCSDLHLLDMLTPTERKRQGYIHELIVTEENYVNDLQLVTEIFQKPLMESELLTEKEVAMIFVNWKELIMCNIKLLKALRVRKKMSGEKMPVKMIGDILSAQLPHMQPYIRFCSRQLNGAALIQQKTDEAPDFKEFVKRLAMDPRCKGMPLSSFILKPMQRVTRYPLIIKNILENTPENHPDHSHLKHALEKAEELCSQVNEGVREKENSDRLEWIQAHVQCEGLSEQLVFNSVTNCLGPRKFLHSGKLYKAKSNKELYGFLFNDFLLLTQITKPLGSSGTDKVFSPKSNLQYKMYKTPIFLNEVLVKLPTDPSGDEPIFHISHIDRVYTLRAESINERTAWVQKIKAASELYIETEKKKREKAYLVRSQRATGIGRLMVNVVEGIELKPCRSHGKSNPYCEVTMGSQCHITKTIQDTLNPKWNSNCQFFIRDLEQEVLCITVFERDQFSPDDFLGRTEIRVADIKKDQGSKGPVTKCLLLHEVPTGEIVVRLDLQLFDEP

Columns and labels:
Test in all cases: proximity labelling
[1] = target: integrin β5-BirA* fusion protein (wild type) (UniProt P18084)
[2] = target: integrin β5-BirA* fusion protein (wild type) (UniProt P18084); remark: listed apart in the source
[3] = target: integrin β5-BirA* with Y>A mutation in the membrane-distal NxxY motif (N2) (UniProt P18084)
[4] = target: integrin β5-BirA* with Y>A mutation in the membrane-proximal NPxY motif (N1) (UniProt P18084)

Molecule	binding [1]	binding [2]	binding [3]	binding [4]
intersectin-1 (from UniProt Q15811 1-1721)	binds			
low density lipoprotein receptor adapter protein 1 (protein, UniProt Q5SW96 1-308) MDALKSAGRALIRSPSLAKQSWGGGGRHRKLPENWTDTRETLLEGMLFSLKYLGMTLVEQPKGEELSAAAIKRIVATAKASGKKLQKVTLKVSPRGIILTDNLTNQLIENVSIYRISYCTADKMHDKVFAYIAQSQHNQSLECHAFLCTKRKMAQAVTLTVAQAFKVAFEFWQVSKEEKEKRDKASQEGGDVLGARQDCTPSLKSLVATGNLLDLEETAKAPLSTVSANTTNMDEVPRPQALSGSSVVWELDDGLDEAFSRLAQSRTNPQVLDTGLTAQDMHYAQCLSPVDWDKPDSSGTEQDDLFSF	binds	binds	binds	
Numb (protein, UniProt P49757 1-651) MNKLRQSFRRKKDVYVPEASRPHQWQTDEEGVRTGKCSFPVKYLGHVEVDESRGMHICEDAVKRLKAERKFFKGFFGKTGKKAVKAVLWVSADGLRVVDEKTKDLIVDQTIEKVSFCAPDRNFDRAFSYICRDGTTRRWICHCFMAVKDTGERLSHAVGCAFAACLERKQKREKECGVTATFDASRTTFTREGSFRVTTATEQAEREEIMKQMQDAKKAETDKIVVGSSVAPGNTAPSPSSPTSPTSDATTSLEMNNPHAIPRRHAPIEQLARQGSFRGFPALSQKMSPFKRQLSLRINELPSTMQRKTDFPIKNAVPEVEGEAESISSLCSQITNAFSTPEDPFSSAPMTKPVTVVAPQSPTFQANGTDSAFHVLAKPAHTALAPVAMPVRETNPWAHAPDAANKEIAATCSGTEWGQSSGAASPGLFQAGHRRTPSEADRWLEEVSKSVRAQQPQASAAPLQPVLQPPPPTAISQPASPFQGNAFLTSQPVPVGVVPALQPAFVPAQSYPVANGMPYPAPNVPVVGITPSQMVANVFGTAGHPQAAHPHQSPSLVRQQTFPHYEASSATTSPFFKPPAQHLNGSAAFNGVDDGRLASADRHTEVPTGTCPVDPFEAQWAALENKSKQRTNPSPTNPFSSDLQKTFEIEL		binds	binds	binds

Where two headings read alike, the source gives them in different places. Results are given in words; binding and its absence hold for the method and conditions named. In cells and extracts the contact can be indirect. A yes stands for co-enrichment or nearness to the bait. Other partners may have been found.
